Data taken from the supplement of paper PMC10849652.
The list shows a part of the results.

Protein sequences, listed by entry. Tags and fused reporters are not part of them. Lines headed by an entry give the natural chain unless they say otherwise; changes in a name come on top.
UniProt O96019, whole entry, looked up: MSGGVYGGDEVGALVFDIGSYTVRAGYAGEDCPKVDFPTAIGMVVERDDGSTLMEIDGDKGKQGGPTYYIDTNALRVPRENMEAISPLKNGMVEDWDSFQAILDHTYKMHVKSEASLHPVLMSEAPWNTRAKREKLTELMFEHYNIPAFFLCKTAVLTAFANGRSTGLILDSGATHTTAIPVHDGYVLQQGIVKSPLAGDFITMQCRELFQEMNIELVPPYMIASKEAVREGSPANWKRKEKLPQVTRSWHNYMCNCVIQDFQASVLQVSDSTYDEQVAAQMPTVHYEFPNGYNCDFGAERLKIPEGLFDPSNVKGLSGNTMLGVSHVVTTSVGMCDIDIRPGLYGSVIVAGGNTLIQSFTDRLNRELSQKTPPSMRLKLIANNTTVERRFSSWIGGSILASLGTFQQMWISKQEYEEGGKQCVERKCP
UniProt Q9NX46: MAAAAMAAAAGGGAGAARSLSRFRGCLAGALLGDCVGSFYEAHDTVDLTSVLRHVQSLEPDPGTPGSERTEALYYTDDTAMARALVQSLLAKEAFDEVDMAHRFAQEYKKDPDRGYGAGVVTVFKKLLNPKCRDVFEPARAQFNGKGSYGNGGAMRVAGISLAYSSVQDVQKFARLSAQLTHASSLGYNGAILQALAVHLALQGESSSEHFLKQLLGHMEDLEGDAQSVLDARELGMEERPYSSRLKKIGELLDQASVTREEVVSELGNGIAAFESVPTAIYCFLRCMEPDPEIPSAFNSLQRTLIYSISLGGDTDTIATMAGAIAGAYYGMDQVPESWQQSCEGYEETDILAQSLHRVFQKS
UniProt O43823: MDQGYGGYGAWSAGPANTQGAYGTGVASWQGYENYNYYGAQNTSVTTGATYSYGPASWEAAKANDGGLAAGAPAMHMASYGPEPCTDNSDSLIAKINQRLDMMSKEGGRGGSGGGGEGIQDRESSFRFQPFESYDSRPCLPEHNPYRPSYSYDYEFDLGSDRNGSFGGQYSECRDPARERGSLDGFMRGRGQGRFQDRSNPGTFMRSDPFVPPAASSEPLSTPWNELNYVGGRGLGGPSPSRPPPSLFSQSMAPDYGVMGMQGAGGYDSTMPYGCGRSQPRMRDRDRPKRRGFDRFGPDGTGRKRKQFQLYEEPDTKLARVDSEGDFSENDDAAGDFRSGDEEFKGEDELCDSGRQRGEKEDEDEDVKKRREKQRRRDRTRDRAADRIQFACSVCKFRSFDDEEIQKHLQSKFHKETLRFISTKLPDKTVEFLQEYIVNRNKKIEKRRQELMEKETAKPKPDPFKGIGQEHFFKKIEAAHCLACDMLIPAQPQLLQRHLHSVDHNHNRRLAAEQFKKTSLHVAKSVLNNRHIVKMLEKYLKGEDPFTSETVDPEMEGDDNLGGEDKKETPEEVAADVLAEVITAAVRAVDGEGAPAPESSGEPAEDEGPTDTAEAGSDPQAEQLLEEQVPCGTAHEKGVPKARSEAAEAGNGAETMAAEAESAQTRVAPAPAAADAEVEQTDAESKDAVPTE
UniProt O43707, whole entry, looked up: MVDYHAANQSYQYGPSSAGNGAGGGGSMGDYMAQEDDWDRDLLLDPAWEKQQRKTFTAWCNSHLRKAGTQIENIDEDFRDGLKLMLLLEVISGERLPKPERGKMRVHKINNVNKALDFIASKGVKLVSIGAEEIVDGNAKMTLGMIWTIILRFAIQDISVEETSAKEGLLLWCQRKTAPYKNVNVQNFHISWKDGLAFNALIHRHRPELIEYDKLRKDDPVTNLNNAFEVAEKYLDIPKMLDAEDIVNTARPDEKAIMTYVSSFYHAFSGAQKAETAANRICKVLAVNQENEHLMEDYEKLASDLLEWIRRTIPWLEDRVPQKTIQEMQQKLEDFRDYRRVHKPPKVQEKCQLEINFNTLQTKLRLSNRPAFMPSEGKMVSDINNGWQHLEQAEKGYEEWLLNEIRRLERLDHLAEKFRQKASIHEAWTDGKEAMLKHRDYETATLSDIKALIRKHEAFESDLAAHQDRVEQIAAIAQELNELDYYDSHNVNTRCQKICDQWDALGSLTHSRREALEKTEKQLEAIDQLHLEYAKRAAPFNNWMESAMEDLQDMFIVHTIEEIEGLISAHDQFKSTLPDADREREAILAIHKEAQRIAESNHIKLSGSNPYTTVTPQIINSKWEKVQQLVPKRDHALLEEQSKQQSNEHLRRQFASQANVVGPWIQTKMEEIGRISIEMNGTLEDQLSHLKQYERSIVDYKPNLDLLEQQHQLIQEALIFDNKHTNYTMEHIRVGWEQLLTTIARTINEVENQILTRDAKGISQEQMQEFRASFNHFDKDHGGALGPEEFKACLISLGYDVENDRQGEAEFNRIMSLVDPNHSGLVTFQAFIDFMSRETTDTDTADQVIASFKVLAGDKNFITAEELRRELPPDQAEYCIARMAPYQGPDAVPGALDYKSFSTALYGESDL
UniProt Q6ULP2: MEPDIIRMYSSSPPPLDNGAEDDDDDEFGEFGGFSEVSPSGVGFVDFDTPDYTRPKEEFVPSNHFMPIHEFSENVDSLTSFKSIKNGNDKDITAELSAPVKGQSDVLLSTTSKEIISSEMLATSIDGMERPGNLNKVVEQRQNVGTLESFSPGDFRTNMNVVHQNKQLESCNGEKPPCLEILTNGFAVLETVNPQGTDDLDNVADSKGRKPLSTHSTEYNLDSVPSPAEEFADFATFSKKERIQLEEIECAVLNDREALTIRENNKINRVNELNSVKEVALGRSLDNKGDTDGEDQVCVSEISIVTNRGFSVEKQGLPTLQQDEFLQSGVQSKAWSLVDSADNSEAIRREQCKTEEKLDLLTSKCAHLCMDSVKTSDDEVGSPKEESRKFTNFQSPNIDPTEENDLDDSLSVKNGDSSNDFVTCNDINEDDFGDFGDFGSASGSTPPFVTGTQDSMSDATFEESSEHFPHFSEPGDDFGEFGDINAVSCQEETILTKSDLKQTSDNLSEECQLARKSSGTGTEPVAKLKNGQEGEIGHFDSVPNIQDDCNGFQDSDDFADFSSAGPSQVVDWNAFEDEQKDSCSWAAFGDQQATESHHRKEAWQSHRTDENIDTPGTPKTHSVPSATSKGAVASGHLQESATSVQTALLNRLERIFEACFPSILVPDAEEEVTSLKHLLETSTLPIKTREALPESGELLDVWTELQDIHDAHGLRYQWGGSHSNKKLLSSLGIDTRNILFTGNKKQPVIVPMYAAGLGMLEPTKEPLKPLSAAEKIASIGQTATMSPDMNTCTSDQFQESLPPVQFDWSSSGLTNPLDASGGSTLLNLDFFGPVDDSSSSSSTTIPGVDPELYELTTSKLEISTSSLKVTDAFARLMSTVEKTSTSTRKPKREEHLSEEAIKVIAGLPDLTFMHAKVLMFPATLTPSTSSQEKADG
UniProt Q96HN2, whole entry, looked up: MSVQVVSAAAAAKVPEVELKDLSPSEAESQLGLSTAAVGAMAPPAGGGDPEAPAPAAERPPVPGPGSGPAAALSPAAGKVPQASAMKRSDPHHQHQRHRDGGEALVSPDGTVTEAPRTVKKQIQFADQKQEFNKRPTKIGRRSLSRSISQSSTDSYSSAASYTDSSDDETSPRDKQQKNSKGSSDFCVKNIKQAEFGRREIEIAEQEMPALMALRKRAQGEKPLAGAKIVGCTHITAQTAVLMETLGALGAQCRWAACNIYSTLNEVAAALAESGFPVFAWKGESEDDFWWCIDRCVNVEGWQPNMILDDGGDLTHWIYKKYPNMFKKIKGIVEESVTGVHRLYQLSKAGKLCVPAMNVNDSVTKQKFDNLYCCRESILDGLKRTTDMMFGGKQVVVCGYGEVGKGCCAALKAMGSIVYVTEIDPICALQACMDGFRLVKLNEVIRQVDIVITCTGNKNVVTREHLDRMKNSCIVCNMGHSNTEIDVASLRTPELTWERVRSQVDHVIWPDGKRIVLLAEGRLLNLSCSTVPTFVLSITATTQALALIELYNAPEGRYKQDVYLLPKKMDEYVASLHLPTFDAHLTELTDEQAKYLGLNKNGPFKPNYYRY
UniProt P02771: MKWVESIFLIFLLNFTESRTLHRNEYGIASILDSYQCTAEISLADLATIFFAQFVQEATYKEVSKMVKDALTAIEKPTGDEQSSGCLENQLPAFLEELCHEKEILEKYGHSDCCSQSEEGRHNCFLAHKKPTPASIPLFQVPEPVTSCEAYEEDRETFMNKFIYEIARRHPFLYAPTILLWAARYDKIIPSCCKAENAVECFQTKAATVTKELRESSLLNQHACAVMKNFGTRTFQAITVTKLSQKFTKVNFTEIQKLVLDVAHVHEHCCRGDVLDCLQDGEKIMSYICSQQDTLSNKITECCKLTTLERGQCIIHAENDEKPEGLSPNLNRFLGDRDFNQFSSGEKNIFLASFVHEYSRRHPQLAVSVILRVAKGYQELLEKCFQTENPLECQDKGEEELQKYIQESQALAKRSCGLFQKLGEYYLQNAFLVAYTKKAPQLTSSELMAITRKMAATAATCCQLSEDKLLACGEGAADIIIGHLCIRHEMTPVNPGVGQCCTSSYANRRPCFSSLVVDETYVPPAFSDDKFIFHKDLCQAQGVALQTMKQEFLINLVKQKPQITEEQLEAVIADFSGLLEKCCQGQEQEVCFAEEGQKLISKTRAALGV
UniProt Q9NUQ2: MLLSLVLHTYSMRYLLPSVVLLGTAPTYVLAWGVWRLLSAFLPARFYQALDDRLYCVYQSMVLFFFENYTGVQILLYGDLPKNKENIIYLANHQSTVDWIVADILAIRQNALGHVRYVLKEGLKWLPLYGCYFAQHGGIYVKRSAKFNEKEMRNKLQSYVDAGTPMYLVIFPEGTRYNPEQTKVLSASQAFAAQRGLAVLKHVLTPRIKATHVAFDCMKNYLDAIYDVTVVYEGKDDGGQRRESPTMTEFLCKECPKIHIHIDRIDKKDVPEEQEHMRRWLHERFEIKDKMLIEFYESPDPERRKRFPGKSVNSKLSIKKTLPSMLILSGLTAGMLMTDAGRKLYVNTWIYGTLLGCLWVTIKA
UniProt Q7Z6V5: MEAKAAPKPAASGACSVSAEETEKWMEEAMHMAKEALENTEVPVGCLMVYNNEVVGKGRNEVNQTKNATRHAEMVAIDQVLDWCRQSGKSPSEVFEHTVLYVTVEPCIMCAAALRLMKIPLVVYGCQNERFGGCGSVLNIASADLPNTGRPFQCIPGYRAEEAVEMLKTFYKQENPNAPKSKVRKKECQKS
UniProt P00568: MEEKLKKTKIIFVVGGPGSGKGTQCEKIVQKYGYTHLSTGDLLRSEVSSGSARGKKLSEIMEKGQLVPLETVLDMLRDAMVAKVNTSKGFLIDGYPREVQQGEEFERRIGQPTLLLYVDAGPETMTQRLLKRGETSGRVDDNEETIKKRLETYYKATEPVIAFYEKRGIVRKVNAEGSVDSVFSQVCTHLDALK
UniProt Q16186: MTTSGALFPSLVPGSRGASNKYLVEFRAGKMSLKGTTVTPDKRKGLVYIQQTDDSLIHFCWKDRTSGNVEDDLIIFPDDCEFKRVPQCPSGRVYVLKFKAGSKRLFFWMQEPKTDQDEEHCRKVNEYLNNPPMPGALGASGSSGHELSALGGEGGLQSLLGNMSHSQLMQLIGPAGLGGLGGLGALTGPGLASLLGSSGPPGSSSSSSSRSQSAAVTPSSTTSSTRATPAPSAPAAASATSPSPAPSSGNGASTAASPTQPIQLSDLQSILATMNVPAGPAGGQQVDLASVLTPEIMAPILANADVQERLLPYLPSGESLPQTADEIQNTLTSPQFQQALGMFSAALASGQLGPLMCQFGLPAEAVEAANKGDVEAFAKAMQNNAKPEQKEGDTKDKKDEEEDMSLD
UniProt O14734: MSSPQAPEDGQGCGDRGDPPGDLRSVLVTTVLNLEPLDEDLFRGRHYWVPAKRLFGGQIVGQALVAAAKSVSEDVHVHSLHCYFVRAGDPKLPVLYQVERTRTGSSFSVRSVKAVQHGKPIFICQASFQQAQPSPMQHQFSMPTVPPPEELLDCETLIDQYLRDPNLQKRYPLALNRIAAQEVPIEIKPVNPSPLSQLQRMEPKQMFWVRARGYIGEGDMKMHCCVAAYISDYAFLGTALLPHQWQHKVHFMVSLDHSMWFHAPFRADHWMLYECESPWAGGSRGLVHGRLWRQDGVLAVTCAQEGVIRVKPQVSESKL
UniProt Q9NZ32, whole entry, looked up: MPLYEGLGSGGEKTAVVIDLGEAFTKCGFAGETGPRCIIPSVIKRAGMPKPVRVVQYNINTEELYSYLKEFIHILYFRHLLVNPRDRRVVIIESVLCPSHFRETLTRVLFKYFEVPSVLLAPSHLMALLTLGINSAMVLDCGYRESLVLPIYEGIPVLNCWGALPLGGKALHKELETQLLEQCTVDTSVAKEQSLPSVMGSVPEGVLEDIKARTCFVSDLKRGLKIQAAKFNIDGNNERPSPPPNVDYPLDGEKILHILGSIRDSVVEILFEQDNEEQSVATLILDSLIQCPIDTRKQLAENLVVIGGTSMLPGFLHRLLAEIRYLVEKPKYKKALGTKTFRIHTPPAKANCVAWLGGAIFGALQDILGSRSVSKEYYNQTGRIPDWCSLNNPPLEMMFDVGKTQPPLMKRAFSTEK

Key:
Experiment in all cases: log2 fold change, soluble protein after heating vs DMSO (PISA); higher = thermal stabilisation; K562 lysate, 10 uM; active = over 0.2 and 3.5 SD of the protein, either way, in both replicates (recomputed)
erlotinib = compound: C#Cc1cccc(Nc2ncnc3cc(OCCOC)c(OCCOC)cc23)c1 [erlotinib]
How it was run: (§1)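 The values are log-two fold changes in thermal stability compared with solvent controls and come from duplicates. They were obtained by TMTpro 16plex LC-MS/MS, with channel sums equalised, on the supernatant after 21,000xg for 90 min. That supernatant came from crude K562 extract at 1 mg/mL protein treated with 10 μM compound for 30 min, heated for 3 min across 48°C-58°C, pooled and brought to 0.5% NP-40 at 4°C.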

[1] = compound: C/C(=N\NC(=O)C1=CC(=CC=C1)S(=O)(=O)N2CCOCC2)/C3=C(C=CC(=C3)Cl)O
How it was run: as §1

[2] = compound: C1=CC(=CC=C1C2=NC3=C(N2)C=C(C=C3)C(=O)N)OC4=CC=C(C=C4)Cl
How it was run: as §1

[3] = compound: C1=CC2=C(C=CC(=C2)/C=C\3/C(=O)NC(=NCC4=CC=CS4)S3)N=C1
How it was run: as §1

[4] = compound: C1=CC2=NC=CN=C2C=C1/C=C/3\C(=O)NC(=O)S3
How it was run: as §1

[5] = compound: C1=CC=C(C=C1)C2=NC(=C(N2)C3=CC=NC=C3)C4=CC(=C(C=C4)Cl)O
How it was run: as §1

[6] = compound: C1=CC=C2C(=C1)C3=NNC4=CC=CC(=C43)C2=O
How it was run: as §1

[7] = compound: C1CCN(C1)C(=O)NC2=CC=CC(=C2)NC3=NC=C(C(=N3)NCCC4=CN=CN4)Br
How it was run: as §1

[8] = compound: C1CN(CCC1(CC2=CC=C(C=C2)Cl)N)C3=NC=NC4=C3C=CN4
How it was run: as §1

IRAK-1-4 Inhibitor I = compound: C1COCCN1CCN2C3=CC=CC=C3N=C2NC(=O)C4=CC(=CC=C4)[N+](=O)[O-] [IRAK-1-4 Inhibitor I]
How it was run: as §1

ibrutinib = compound: C=CC(=O)N1CCC[C@@H](n2nc(-c3ccc(Oc4ccccc4)cc3)c3c(N)ncnc32)C1 [ibrutinib]
How it was run: as §1

[9] = compound: CC(=O)c1cnc2ccc(-c3cc(Cl)c(O)c(Cl)c3)nc2c1N[C@H]1CC[C@H](CN(C)C)CC1
How it was run: as §1

ralimetinib = compound: CC(C)(C)Cn1c(N)nc2ccc(-c3[nH]c(C(C)(C)C)nc3-c3ccc(F)cc3)nc21 [ralimetinib]
How it was run: as §1

[10] = compound: CC(C)(O)CC(=O)NCCn1ccc2ncnc(Nc3ccc(Oc4cccc(C(F)(F)F)c4)c(Cl)c3)c21
How it was run: as §1

[11] = compound: CC(C)C1=C2N=C(C=C(N2N=C1)NCC3=CC=CC=C3)NCCCCCCN
How it was run: as §1

[12] = compound: CC1=C(C(CC(=O)N1)C2=CC=C(C=C2)C(F)(F)F)C(=O)NC3=C(C=C4C(=C3)C=NN4)F
How it was run: as §1

[13] = compound: CC1=C(C2=C(C=C1)C(=O)C3=CC=CC=C3N2CCCN)C
How it was run: as §1

[14] = compound: CC1=C(C=C(C=C1)NC(=O)C2=CC(=CC=C2)C(C)(C)C#N)NC3=CC4=C(C=C3)N=CN(C4=O)C
How it was run: as §1

[15] = compound: CC1=C(C=C(C=C1)NC(=O)C2=CC(=CC=C2)N(C)C)NC(=O)C3=CC=C(C=C3)O
How it was run: as §1

[16] = compound: CC1=CC=C(C=C1)SC2=C3C=C(SC3=CN=C2)C(=O)N
How it was run: as §1

Target | log2 fold change (erlotinib) | log2 fold change [1] | log2 fold change [2] | log2 fold change [3] | log2 fold change [4] | log2 fold change [5] | log2 fold change [6] | log2 fold change [7] | log2 fold change [8] | log2 fold change (IRAK-1-4 Inhibitor I) | log2 fold change (ibrutinib) | log2 fold change [9] | log2 fold change (ralimetinib) | log2 fold change [10] | log2 fold change [11] | log2 fold change [12] | log2 fold change [13] | log2 fold change [14] | log2 fold change [15] | log2 fold change [16]
ACTL6A (UniProt O96019) | inactive: 0.005 | inactive: 0.02 | inactive: 0.017 | inactive: -0.015 | inactive: 0.008 | inactive: -0.008 | inactive: 0.001 | inactive: -0.016 | inactive: 0.014 | inactive: -0.006 | inactive: -0.019 | inactive: -0.018 | inactive: 0.008 | inactive: -0.02 | inactive: 0.009 | inactive: -0.009 | inactive: -0.008 | inactive: 0.013 | inactive: -0.002 | inactive: -0.008
ADPRHL2 (UniProt Q9NX46) | inactive: -0.031 | inactive: 0.038 | inactive: 0.022 | inactive: -0.039 | inactive: 0.012 | inactive: 0 | inactive: -0.004 | inactive: 0.03 | inactive: 0.037 | inactive: -0.023 | inactive: -0.042 | inactive: -0.011 | inactive: -0.033 | inactive: 0.009 | inactive: 0.007 | inactive: -0.053 | inactive: -0.038 | inactive: -0.027 | inactive: 0.013 | inactive: 0.034
AKAP8 (UniProt O43823) | inactive: -0.015 | inactive: 0.002 | inactive: 0.038 | inactive: -0.005 | inactive: -0.04 | inactive: 0.045 | inactive: -0.047 | inactive: 0.044 | inactive: 0 | inactive: 0.089 | inactive: 0 | inactive: -0.019 | inactive: -0.039 | inactive: -0.084 | inactive: -0.009 | inactive: 0.076 | inactive: -0.056 | inactive: -0.158 | inactive: 0.016 | inactive: -0.03
ACTN4 (UniProt O43707) | inactive: 0.005 | inactive: 0.035 | inactive: 0.019 | inactive: -0.006 | inactive: -0.012 | inactive: 0.007 | inactive: 0.006 | inactive: 0.028 | inactive: -0.004 | inactive: 0.02 | inactive: 0.017 | inactive: -0.006 | inactive: 0.002 | inactive: -0.018 | inactive: 0.008 | inactive: -0.011 | inactive: 0.002 | inactive: 0.007 | inactive: -0.007 | inactive: -0.013
AFTPH isoform 9 (UniProt Q6ULP2) | inactive: -0.016 | inactive: -0.042 | inactive: 0.024 | inactive: 0.01 | inactive: 0.017 | inactive: -0.014 | inactive: 0.012 | inactive: 0.042 | inactive: -0.049 | inactive: -0.009 | inactive: 0.002 | inactive: -0.003 | inactive: 0.06 | inactive: 0.021 | inactive: -0.048 | inactive: 0.103 | inactive: 0.002 | inactive: -0.031 | inactive: -0.02 | inactive: -0.023
AHCYL2 (UniProt Q96HN2) | inactive: 0.026 | inactive: 0.094 | inactive: 0.04 | inactive: 0.052 | inactive: 0.01 | inactive: 0.02 | inactive: 0.013 | inactive: -0.005 | inactive: 0.017 | inactive: 0.005 | inactive: -0.016 | inactive: -0.039 | inactive: -0.002 | inactive: -0.001 | inactive: -0.005 | inactive: -0.008 | inactive: 0.002 | inactive: 0.026 | inactive: 0 | inactive: -0.011
AFP (UniProt P02771) | inactive: 0.002 | inactive: 0.16 | inactive: -0.003 | inactive: 0.117 | inactive: -0.032 | inactive: 0.023 | inactive: -0.137 | inactive: 0.032 | inactive: 0.039 | inactive: 0.012 | inactive: -0.026 | inactive: 0.074 | inactive: -0.022 | inactive: -0.022 | inactive: -0.048 | inactive: 0.069 | inactive: 0.014 | inactive: -0.053 | inactive: -0.02 | inactive: 0.057
AGPAT5 (UniProt Q9NUQ2) | inactive: 0.017 | inactive: 0.072 | inactive: -0.147 | inactive: -0.001 | inactive: -0.01 | inactive: -0.013 | inactive: -0.065 | inactive: 0.01 | inactive: -0.008 | inactive: 0.006 | inactive: -0.04 | inactive: -0.046 | inactive: -0.054 | inactive: -0.008 | inactive: 0.018 | inactive: 0.015 | inactive: 0.048 | inactive: -0.044 | inactive: 0.051 | inactive: 0.02
ADAT2 (UniProt Q7Z6V5) | inactive: 0.006 | inactive: 0.146 | inactive: 0.016 | inactive: 0.003 | inactive: 0.03 | inactive: 0.095 | inactive: 0.049 | inactive: -0.023 | inactive: -0.049 | inactive: 0.031 | inactive: -0.069 | inactive: 0.002 | inactive: 0.01 | inactive: -0.045 | inactive: -0.014 | inactive: -0.023 | inactive: -0.034 | inactive: 0.043 | inactive: -0.027 | inactive: -0.028
AKAP8L (UniProt Q9ULX6) | inactive: 0.061 | inactive: 0.093 | inactive: 0.032 | inactive: 0.002 | inactive: 0.017 | inactive: 0 | inactive: -0.022 | inactive: 0.029 | inactive: -0.032 | inactive: -0.002 | inactive: 0 | inactive: -0.046 | inactive: 0.002 | inactive: -0.019 | inactive: 0.009 | inactive: -0.02 | inactive: 0.003 | active: -0.271 | inactive: 0.046 | inactive: 0.032
AK1 (UniProt P00568) | inactive: -0.023 | inactive: 0.002 | inactive: 0.014 | inactive: -0.036 | inactive: 0.002 | inactive: -0.004 | inactive: 0.047 | inactive: 0.067 | inactive: -0.003 | inactive: -0.002 | inactive: -0.001 | inactive: 0.006 | inactive: 0.006 | inactive: -0.021 | inactive: -0.029 | inactive: -0.008 | inactive: 0.043 | inactive: -0.024 | inactive: -0.002 | inactive: 0.009
ADRM1 (UniProt Q16186) | inactive: 0.007 | inactive: -0.006 | inactive: 0.007 | inactive: -0.026 | inactive: -0.016 | inactive: 0.018 | inactive: -0.088 | inactive: 0.012 | inactive: 0.007 | inactive: 0.026 | inactive: 0.005 | inactive: -0.009 | inactive: 0.027 | inactive: -0.007 | inactive: 0.026 | inactive: -0.028 | inactive: -0.011 | inactive: 0.019 | inactive: 0.012 | inactive: -0.01
ADD2 (UniProt P35612) | inactive: -0.017 | inactive: 0.009 | inactive: 0.019 | inactive: -0.008 | inactive: -0.016 | inactive: 0.011 | inactive: -0.02 | inactive: -0.034 | inactive: -0.019 | inactive: -0.008 | inactive: -0.004 | inactive: 0.001 | inactive: 0.012 | inactive: -0.014 | inactive: -0.006 | inactive: -0.024 | inactive: -0.004 | inactive: 0.011 | inactive: 0.015 | inactive: -0.016
ACOT8 (UniProt O14734) | inactive: -0.029 | inactive: -0.018 | inactive: 0.02 | inactive: -0.007 | inactive: 0.008 | inactive: -0.008 | inactive: -0.206 | inactive: -0.005 | inactive: 0.009 | inactive: 0.053 | inactive: 0.001 | inactive: 0.024 | inactive: 0.045 | inactive: -0.06 | inactive: 0.002 | inactive: 0.02 | inactive: -0.026 | inactive: 0.017 | inactive: 0.012 | inactive: -0.022
ACTR10 (UniProt Q9NZ32) | inactive: -0.007 | inactive: 0.025 | inactive: 0.043 | inactive: -0.027 | inactive: -0.011 | inactive: 0.052 | inactive: -0.016 | inactive: -0.008 | inactive: -0.002 | inactive: 0.015 | inactive: 0.036 | inactive: -0.019 | inactive: -0.005 | inactive: -0.007 | inactive: -0.011 | inactive: -0.014 | inactive: -0.021 | inactive: 0.085 | inactive: 0.083 | inactive: -0.022

Quoted from the listing.
ACTL6A (UniProt O96019) – log2 fold change [3]: inactive: -0.015
AHCYL2 (UniProt Q96HN2) – log2 fold change [10]: inactive: -0.001
